Values of other authors, collected in patent US20150072003A1, “FORMULATIONS” (Hoffmann-La Roche Inc., priority 2012, published 2015).
At least one structure is not confirmed: it was looked up by name or label, or the drawing left a doubt.

Columns and labels:
CETP [1] = molecular target: T1, CETP (Oryctolagus cuniculus, UniProt P22687); settings: rabbits; Shinkai 2000, Kobayashi 2002, Okamoto 2000
T1 construct: and rabbits (Shinkai et al., J. Med. Chem., 43, 3566-3572 (2000))
T1 sequence (P22687 2-497): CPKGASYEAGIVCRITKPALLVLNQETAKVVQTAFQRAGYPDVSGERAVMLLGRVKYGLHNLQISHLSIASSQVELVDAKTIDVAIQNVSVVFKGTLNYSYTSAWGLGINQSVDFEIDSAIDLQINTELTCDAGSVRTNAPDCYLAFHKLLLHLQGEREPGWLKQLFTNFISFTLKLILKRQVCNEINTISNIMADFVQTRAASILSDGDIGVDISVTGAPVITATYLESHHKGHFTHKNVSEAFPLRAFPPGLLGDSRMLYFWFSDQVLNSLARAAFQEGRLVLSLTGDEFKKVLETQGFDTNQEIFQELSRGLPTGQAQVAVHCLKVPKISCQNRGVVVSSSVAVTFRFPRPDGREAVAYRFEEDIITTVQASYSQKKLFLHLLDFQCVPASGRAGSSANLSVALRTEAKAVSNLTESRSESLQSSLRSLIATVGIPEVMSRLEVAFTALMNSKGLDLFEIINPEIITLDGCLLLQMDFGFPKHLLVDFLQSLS

CETP [2] = molecular target: T2, CETP (Homo sapiens, UniProt P11597); settings: humans; de Grooth et al. 2002
T2 sequence (P11597 18-493): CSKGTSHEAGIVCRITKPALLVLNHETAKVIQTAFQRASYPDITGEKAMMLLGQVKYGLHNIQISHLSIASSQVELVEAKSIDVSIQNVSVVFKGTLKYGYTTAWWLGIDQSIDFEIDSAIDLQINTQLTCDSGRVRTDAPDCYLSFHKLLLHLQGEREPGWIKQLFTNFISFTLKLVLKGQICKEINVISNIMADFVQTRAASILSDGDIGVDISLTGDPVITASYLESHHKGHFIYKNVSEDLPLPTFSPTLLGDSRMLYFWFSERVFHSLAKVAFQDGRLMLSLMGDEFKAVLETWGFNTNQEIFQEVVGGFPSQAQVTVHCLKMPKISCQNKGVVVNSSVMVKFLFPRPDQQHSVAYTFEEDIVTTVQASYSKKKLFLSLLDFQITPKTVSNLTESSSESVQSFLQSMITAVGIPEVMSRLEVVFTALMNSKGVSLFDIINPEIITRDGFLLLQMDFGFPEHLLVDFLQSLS

SMILES: CCC(CC)CC1(C(=O)Nc2ccccc2SC(=O)C(C)C)CCCCC1 [S-[2-([[1-(2-ethylbutyl)cyclohexyl]carbonyl]amino)phenyl]2-methylpropanethioate]
- CETP activity (CETP [1]): inhibitor of CETP activity
- CETP activity (CETP [2]): inhibitor of CETP activity
